In this assay the target is N-terminally HA-tagged Fra (Frazzled), pan-neurally overexpressed (Drosophila). Description: affinity purification with mass spectrometry; lysates of Drosophila embryos pan-neurally (elav-Gal4) overexpressing N-terminally HA-tagged Fra; anti-HA immunoprecipitation overnight at 4°C, protein A and G agarose beads, TBSV with 1% NP40; eluted with glycine pH 2.0; label-free LC-MS/MS; control embryos with elav-Gal4 alone.

This note sets out measurements from publication PMC10445734.

Results are given in words; binding and its absence hold for the method and conditions named. Binding seen in cells or lysates may run through a third protein. Here binding means that the protein was enriched with, or labelled near, the bait; the list need not be complete.

B1: Prosalpha2 (protein, UniProt P40301 1-234)
chain: MATERYSFSLTTFSPSGKLVQLEYALAAVSGGAPSVGIIASNGVVIATENKHKSPLYEQHSVHRVEMIYNHIGMVYSGMGPDYRLLVKQARKIAQTYYLTYKEPIPVSQLVQRVATLMQEYTQSGGVRPFGVSLLICGWDNDRPYLYQSDPSGAYFAWKATAMGKNAVNGKTFLEKRYSEDLELDDAVHTAILTLKEGFEGKMTADNIEIGICDQNGFQRLDPASIKDYLASIP
B1: the binding result is listed as “binds”.

B2: Rho-5 (protein, UniProt Q76NQ1 1-1429)
chain: MSSNGSDLGHNNRRNEKGNPDSVHSSMRGSMSSTRRKSINFQNQLQLALESNECDVMYCSLSSGRFRAPNGENFPPHGGKLKLSPLEKYDDANRGVPPPSPAPNSDCFATCVANQLPSQSCSVGSAKPETSVMQKHGMAGNGMVGSGMSGNGMAANGTNYHQRGVSPNSRYRLERYRESQSTPQSKLMDNMGGMPSAVPSVSATRLLLPSNVPLPLAQCENYNAYLGSTVHTPVKRYVPTPPPAMELYSDLSISSSPAANLPTPAAAVASSASTSASAMQSQYANMPYNYRSKCCHSEASHGSLSRTSQTYASCSPACTSPSPAPSTSMSMVFSAASSCSPIMTATSSARSGNHRGDDSDSVIVVPPGGGAMAQIEAENPSGTCLHCNTVRRTTGVHQTTQTTGPISPVPISLPVPMAMPVMSGLNEQMPSQSLESSMVSVQAKRLEGGGNMAVPPGSNQHQLYRSQMASNPRLQHIHHQTQQHQSLQVLPQPQNHHLSCKKRIGMYMRRTTSQFFGVEPSTEAADCALWQGRHRRLAIRCFGMFDTELEYHMQQAIGGGNEDAGQSNGTNGNYAPDRPDILPVQDAIGMDMTMSGDSRRQKCYTNRDFLAGEFVERKASVGYMFVAMVSYLVHMFNKRRPIQMHRVRCPWQWSRSFAPIHVQSHSNQQTDADGCLTDGLEAIIDDEVFFDSPCEITTSAVNDESSDIGRQAAKPRPCADQSGVGVSVYMAERQQNGWRTSALNSGGNATSDINLTGDQSSHQPGAAHIPLCSSVSSQMQPAMRSSHSTTSTCNRGNRITAQLLDGVLENSRRPPLRCIKYFSVNDLDDRTDHRPFFTYWINTVQVVVLILSIICYGIAPIGIGSEQKTGQVLVTSLSLQTVQHVEQRNLWIGPRNIDLVHMGAKFAACMRRDIKITEVVTKTRRHERETACCIRNDDSGCVQSSQAECSIRGLYPTKSISTWKKWSPSESGPGGRISGSVCGLDPKFCDAPASIAPYEWPDDITKWPICRKTNSFTQRYRYKDHTSEHMVCEVIGHPCCTGLYGECRITTREYCDFIKGYFHEEASLCSQISCLNNVCGMFPFISVETPDQLYRLLTSLCMHAGILHLAITLIFQHLFLADLERLIGTVRTAIVYIMSGFAGNLTSAILVPHRPEVGPSASLSGVVASLIALLVWMHWKYLHKPHIALFKLLLLCSVLVGIGTLPYQLNFLGLLAGVICGCLLTMSLVPFTTFSKYGRKKKINLIWTCVLFHVVVYTAMIVTFYIHPSEFHSISFVDMFSNSNGYDNFTNADHHGVDVVSSNTRYSQTQNSQYYYHHHSDDIIRKSVTFTEKALVSHILYPTAPRKTSAQQWQEVEYSRSFNHLSNYSDRIKKSIGNISKLKQVFTSPIRFSNKNNHSNLMTELTSVHSENKQKYLGYINNNTEFNVL
Consider B2, for which the binding result is listed as “binds”.
